# According to the supplement of paper PMC12067093, “Discovery and optimisation of a covalent ligand for TRIM25 and its application to targeted protein ubiquitination” (Chemical Science, 2025):
# The chains behind the UniProt entries cited, without tags or fusion partners. Where a name states a change or a piece, a line headed by the entry shows the natural chain unless it says otherwise.
# UniProt P00492: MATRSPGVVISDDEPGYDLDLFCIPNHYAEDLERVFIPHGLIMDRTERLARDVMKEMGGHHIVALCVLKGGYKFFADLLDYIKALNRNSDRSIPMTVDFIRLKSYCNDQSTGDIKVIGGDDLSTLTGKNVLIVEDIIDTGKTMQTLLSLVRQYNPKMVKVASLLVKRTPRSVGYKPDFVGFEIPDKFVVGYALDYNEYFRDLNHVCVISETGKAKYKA
# The list shows a part of the results.
# Biological target: HPRT1_P00492_66_EMGGHHIVALCVLK (UniProt P00492)
# Assay: probe-labelled cysteine peptide fold change vs DMSO (competition) (log2 fold change); higher = less target engagement (more negative = stronger competition)
# Settings: THP-1, incubation time: 4 h
# 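Note: competitive profiling in live THP-1 cells: cysteine peptides tagged with an iodoacetamide desthiobiotin (IA-DTB) probe, intensity after compound treatment relative to DMSO-treated cells.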
structure (smiles),measurement,setting,value
Cc1cc(C(=O)N2CCCN(C(=O)CCl)CC2)ccc1-c1ccccc1 [compound 10],probe-labelled cysteine peptide fold change,10 µM,-0.101
same,probe-labelled cysteine peptide fold change,50 µM,0.19
